Test results published in publication PMC7140707.
No constants are given. Whether binding was seen depends on the method and setting. Binding seen in cells or lysates may run through a third protein. These calls come from enrichment with a bait or labelling near it, and not all partners need be listed. Where a sequence is shown, tags or fusion partners need not be part of it.

B1: CAF20 (protein, UniProt P12962 1-161)
chain: MIKYTIDELFQLKPSLTLEVNFDAVEFRAIIEKVKQLQHLKEEEFNSHHVGHFGRRRSSHHHGRPKIKHNKPKVTTDSDGWCTFEAKKKGSGEDDEEETETTPTSTVPVATIAQETLKVKPNNKNISSNRPADTRDIVADKPILGFNAFAALESEDEDDEA
B2: YPK2 (protein, UniProt P18961 1-677)
chain: MHSWRISKFKLGRSKEDDGSSEDENEKSWGNGLFHFHHGEKHHDGSPKNHNHEHEHHIRKINTNETLPSSLSSPKLRNDASFKNPSGIGNDNSKASERKASQSSTETQGPSSESGLMTVKVYSGKDFTLPFPITSNSTILQKLLSSGILTSSSNDASEVAAIMRQLPRYKRVDQDSAGEGLIDRAFATKFIPSSILLPGSTNSSPLLYFTIEFDNSITTISPDMGTMEQPVFNKISTFDVTRKLRFLKIDVFARIPSLLLPSKNWQQEIGEQDEVLKEILKKINTNQDIHLDSFHLPLNLKIDSAAQIRLYNHHWISLERGYGKLNITVDYKPSKNKPLSIDDFDLLKVIGKGSFGKVMQVRKKDTQKIYALKALRKAYIVSKCEVTHTLAERTVLARVDCPFIVPLKFSFQSPEKLYLVLAFINGGELFYHLQHEGRFSLARSRFYIAELLCALDSLHKLDVIYRDLKPENILLDYQGHIALCDFGLCKLNMKDNDKTDTFCGTPEYLAPEILLGQGYTKTVDWWTLGILLYEMMTGLPPYYDENVPVMYKKILQQPLLFPDGFDPAAKDLLIGLLSRDPSRRLGVNGTDEIRNHPFFKDISWKKLLLKGYIPPYKPIVKSEIDTANFDQEFTKEKPIDSVVDEYLSASIQKQFGGWTYIGDEQLGDSPSQGRSIS
B3: UTR1 (protein, UniProt P21373 1-530)
chain: MKENDMNNGVDKWVNEEDGRNDHHNNNNNLMKKAMMNNEQIDRTQDIDNAKEMLRKISSESSSRRSSLLNKDSSLVNGNANSGGGTSINGTRGSSKSSNTHFQYASTAYGVRMLSKDISNTKVELDVENLMIVTKLNDVSLYFLTRELVEWVLVHFPRVTVYVDSELKNSKKFAAGELCEDSKCRESRIKYWTKDFIREHDVFFDLVVTLGGDGTVLFVSSIFQRHVPPVMSFSLGSLGFLTNFKFEHFREDLPRIMNHKIKTNLRLRLECTIYRRHRPEVDPNTGKKICVVEKLSTHHILNEVTIDRGPSPFLSMLELYGDGSLMTVAQADGLIAATPTGSTAYSLSAGGSLVCPTVNAIALTPICPHALSFRPIILPESINLKVKVSMKSRAPAWAAFDGKDRIELQKGDFITICASPYAFPTVEASPDEFINSISRQLNWNVREQQKSFTHILSQKNQEKYAHEANKVRNQAEPLEVIRDKYSLEADATKENNNGSDDESDDESVNCEACKLKPSSVPKPSQARFSV
B4: YCL020W (protein, UniProt P25383 1-438)
chain: MESQQLHQNPRSLHGSAYASVTSKEVPSNQDPLAVSASNLPEFDRDSTKVNSQQETTPGTSAVPENHHHVSPQPASVPPPQNGQYQQHGMMTPNKAMASNWAHYQQPSMMTCSHYQTSPAYYQPDPHYPLPQYIPPLSTSSPDPIDSQNQHSEVPQAETKVRNNVLPPHTLTSEENFSTWVKFYIRFLKNSNLGDIIPNDQGEIKRQMTYEEHAYIYNTFQAFAPFHLLPTWVKQILEINYADILTVLCKSVSKMQTNNQELKDWIALANLEYDGSTSADTFEITVSTIIQRLKENNINVSDRLACQLILKGLSGDFKYLRNQYRTKTNMKLSQLFAEIQLIYDENKIMNLNKPSQYKQHSEYKNVSRTSPNTTNTKVTTRNYQRTNSSKPRAAKAHNIATSSKFSRVNNDHINESTVSSQYLSDDNELSLRPATERI
B5: TOD6 (protein, UniProt P34219 1-525)
chain: MTLPKLSSVSVSSGHVSANSHGFSILSKHPHPNNLVHSHSLSHTNAKSHLPISSTSTKENSTNKEEAESLKKNNPSSWDPSDDIKLRHLKEIKNLGWKEIAHHFPNRTPNACQFRWRRLKSGNLKSNKTAVIDINKLFGVYATGDATPSAGTPSAEEAVKEEAVEDEDITAGSSAIEDSPPDFKPLVKPKYMDRKLITQRSTSTFSDHEPQHTKPRKLFVKPRSFSHSITTNTPNVKTAQQTNLSLYNTTSAKTNKAVNSNDYENIGLVPKIIIRSRRNSFIPSTQIPHSTTKTRKNSHSVISSRRSSFNMMHSRRSSFNSHAPTEPISRRASLVVSPYMSPRRLSTSQSVHYHPQHQYYLNPIASPNCKTDHANDKITHTRTFLDMQKFANKHPWSREDDEVLLNNTKDKQNHLSPLEISIVLPNNRSELEIQQRMDYLKRKGRVSGFHTNEGCKDEEEEDDIDPLHKENGINTPSQQSQNYGMLEAKHDNPKSSELSSMTSANDIRNEQDELPGINSIFKNIF
B6: YPL247C (protein, UniProt Q12523 1-523)
chain: MDPFHNGNKRSSISFGSSQRQPYNKNNYLSGTNGPSSAAQDQGRGPSPFGMSGNTTNGGNSKRNSGCDLSATYYASRSPMYSPLDFSPPVFSPNHSQLQQARGYAANIPVVSNLMNPSMASVCEYQSHYPLFGLDWSADDYVCLGSYKEDSRNKLQVLHSNDLLSWESVVDADVVYPVSKIQWVPSQLYPRKLATCSDSLRIWSVSPEERQFQEQINLSLCKYNRQHPANPAAADDMKVIGTFPPITSFDWNTVDTNLIISSSIDTTCIVWDLQSSHYVKTQLIAHDSEVFDVRFLTKSTQLFASCGGDGSVRVFDLRSLAHSTIIYEPPSSSVSGATAGTITPSSKGSDALLRLEPSPYDPNVLATFAADSNKIIILDMRNPESPILNLQGHGSSVNGIKWHPTKRNVLLSCGDDCQVLYWDLNSSFMEINAAGSKSPSIHGTSLEDPDGDTEMTDGGAGSGLNEDPLSLNNNSKQVCKTLETPNMMYANKTQEINNIAWRPQRGDWFGCVSGKKFQNVRVL
B7: ADE1 (protein, UniProt P27616 1-306)
chain: MSITKTELDGILPLVARGKVRDIYEVDAGTLLFVATDRISAYDVIMENSIPEKGILLTKLSEFWFKFLSNDVRNHLVDIAPGKTIFDYLPAKLSEPKYKTQLEDRSLLVHKHKLIPLEVIVRGYITGSAWKEYVKTGTVHGLKQPQGLKESQEFPEPIFTPSTKAEQGEHDENISPAQAAELVGEDLSRRVAELAVKLYSKCKDYAKEKGIIIADTKFEFGIDEKTNEIILVDEVLTPDSSRFWNGASYKVGESQDSYDKQFLRDWLTANKLNGVNGVKMPQDIVDRTRAKYIEAYETLTGSKWSH
B8: YBL081W (protein, UniProt P38180 1-368)
chain: MPGQIISIPFLSQNEDMDKYLLEYRSLKLLHQSSNSFQSHNAPSHQSNYHPHYNHMKYNNTGSYYYYNNNNNSSVNPHNQAGLQSINRSIPSAPYGAYNQNRANDVPYMNTQKKHHRFSANNNLNQQKYKQYPQYTSNPMVTAHLKQTYPQLYYNSNVNAHNNNNNSNNNNNNNNNSNNNNNLYNQTQFSTRYFNSNSSPSLTSSTSNSSSPYNQSTFEYILPSTSAASTNLSSSSSNNSMHTNPTTATSTSADLINDLPVGPTSSSLISDLHSPPTVSFLPASQTLLMSSTTSSSIGTNINPPQHSPSPSQREDFSTAPVNMSSSASLLMNDSSLGWGSNHMNVSSSSQPASSRPFGIWNTDMSVWS
B9: TOS1 (protein, UniProt P38288 24-455)
chain: DCTYSGGNYYCAQTDAIIYSNVGLSATYQDVTNMDESSCACTQADFTASGSLAPFNEELSVHFRGPIELLQFGVYYPNGESNALKKRSEKQSIESCKEGEAVVSRHKHQHKRDVAVEYVQVTSTVYVDSNGQTVTADSTNTVVGPAVPSSYTKDSTVLSSSAQAVETSESQSSISSSKTTSSAAAASSSSSSSSNTNGDWSRGSYFVPGSTSNCTFMNNQGGTAGSGVWSSCFGNSISFAASDGVSGAASAQALGDVTIKSGNEFMIFSGEECSGNNGDCGYYREGIPAYHGFGGADKIFVFEFSMPSDTSGSAYNQDMPAIWLLNAKIPRTLQYGDASCSCWKTGCGEMDLFEILTAGSDKLISHIHDGQDGGTQDYFERPTDGTLKAAVIFNSSDKTIHIIEVDESFDATLSDDVVDQWLSKSGSSAALP
B10: ADH3 (protein, UniProt P07246 25-375)
chain: QSTAAIPKTQKGVIFYENKGKLHYKDIPVPEPKPNEILINVKYSGVCHTDLHAWHGDWPLPVKLPLVGGHEGAGVVVKLGSNVKGWKVGDLAGIKWLNGSCMTCEFCESGHESNCPDADLSGYTHDGSFQQFATADAIQAAKIQQGTDLAEVAPILCAGVTVYKALKEADLKAGDWVAISGAAGGLGSLAVQYATAMGYRVLGIDAGEEKEKLFKKLGGEVFIDFTKTKNMVSDIQEATKGGPHGVINVSVSEAAISLSTEYVRPCGTVVLVGLPANAYVKSEVFSHVVKSINIKGSYVGNRADTREALDFFSRGLIKSPIKIVGLSELPKVYDLMEKGKILGRYVVDTSK
B11: AGE1 (protein, UniProt Q04412 1-482)
chain: MDFYTTDINKNVVPLFSKGTVARTASKAQYPSWCNNALKLTNILLKSLRCKFQTNRCEDDRGFEVYCVILKSIALLMAAKESLILLQIPPSLPSGFPFRSPQLSFTYLSTRLSGSQHKSTHSHHINHQTHPIHSSSSNSNSNNRIPTKTDSSKQHTQHFSFANAGASNRDELLSIVRKIDKSNLKCCDCGSTATVEWVSINLLCILCIKCSGVHRSLGSHISKIRSLTLDNFTSLELMHLLQNNVSNSNVNAIYESNLRNFPVKKITANSDDSERSKFIIDKYQFKKFVIDSNQGREASLKSLIKAIHLDSVFMMQRAIAQSKYSLRELTASEKEQNDLNHSSIFQYSLKHYEIVDGTPIFFITEFLLCNGIHIDNLPKITTNWSPKVLEYWETKLEMYGTFQAVNTSRPRSGPHLNMHSNVDSASSYNKKHDLRVNIPERSASASKRWSLSSIPKSSQNLMSPTNLLTMHKSLKLAKKDKK

molecular target: T1, His6-Gis1 (yeast (S. cerevisiae)) (UniProt Q03833); experiment: affinity purification with mass spectrometry; His6-Gis1 pre-bound to a Ni Sepharose 6 Fast Flow column; crude yeast extract (Δgis1 cells grown in air or under hypoxia, Δgis1Δhem1 cells at intermediate or high ALA) loaded, 4 °C, 2 h; eluted complexes separated by SDS-PAGE, bands excised, MS; only the target purified
T1 sequence: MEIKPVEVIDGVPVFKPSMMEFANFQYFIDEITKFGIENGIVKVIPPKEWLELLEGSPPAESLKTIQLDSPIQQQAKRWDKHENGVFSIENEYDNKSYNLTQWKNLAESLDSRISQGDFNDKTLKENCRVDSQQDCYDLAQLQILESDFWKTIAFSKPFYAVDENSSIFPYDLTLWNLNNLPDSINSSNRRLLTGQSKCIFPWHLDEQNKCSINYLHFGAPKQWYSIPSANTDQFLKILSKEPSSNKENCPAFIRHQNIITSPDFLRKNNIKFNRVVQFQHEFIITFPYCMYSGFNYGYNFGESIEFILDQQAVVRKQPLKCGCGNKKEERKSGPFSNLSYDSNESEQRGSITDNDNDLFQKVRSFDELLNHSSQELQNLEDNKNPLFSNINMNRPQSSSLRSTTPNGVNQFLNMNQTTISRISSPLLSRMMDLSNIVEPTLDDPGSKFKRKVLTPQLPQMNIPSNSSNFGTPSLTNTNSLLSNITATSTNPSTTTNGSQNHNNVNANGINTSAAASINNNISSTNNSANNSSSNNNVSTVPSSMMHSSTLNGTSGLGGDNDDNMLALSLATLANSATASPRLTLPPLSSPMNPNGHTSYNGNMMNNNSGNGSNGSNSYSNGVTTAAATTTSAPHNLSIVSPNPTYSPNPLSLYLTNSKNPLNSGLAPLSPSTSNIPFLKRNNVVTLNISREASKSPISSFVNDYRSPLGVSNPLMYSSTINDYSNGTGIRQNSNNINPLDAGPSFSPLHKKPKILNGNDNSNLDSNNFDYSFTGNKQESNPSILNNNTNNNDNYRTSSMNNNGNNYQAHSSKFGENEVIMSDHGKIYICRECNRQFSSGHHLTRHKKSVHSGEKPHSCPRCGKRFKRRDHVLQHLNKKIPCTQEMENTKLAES

binding, binds:
B1, B2, B3, B4, B5, B6, B7, B8, B9, B10, B11
